Measurements: patent US11111222B2, “Hydroxyeicosatrienoic acid compounds and their use as therapeutic agents” (THE REGENTS OF THE UNIVERSITY OF MICHIGAN, priority 2016, dated 2021)

Test system: 12-LOX and COX-1 metabolites
Experiment: LC/MS quantification of oxylipins released from washed human platelets
Format: cell-based
Settings: DGLA 10 μM, 10 min, PAR4-AP 200 μM, vs DMSO

CCCCC/C=C\C/C=C\C/C=C\CCCCCCC(=O)O [DGLA, Dihomo-γ-linolenic acid]
amount of AA-dependent metabolites from 12-LOX (12-HETE) or COX-1 (TxB2 or PGE2): unaltered
amount of DGLA-dependent COX-1 and 12-LOX oxylipins: significantly potentiated
